## Primary screen of a compound library

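Whole-parasite assay of Trypanosoma brucei over 72 hours; the read-out is not stated. Concentration: 30 µM. Higher reads as stronger inhibition (inferred: compounds with an IC50 in retests scored well above the rest). Values scatter widely below zero; nearly all retest evidence comes from the higher of the two concentrations used. Size under these conditions: about 64,000 compounds, about 940 of them at 50% or above in at least one test.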

The filed quantity is “Percent Effect” (%). How 0% and 100% were set is not recorded. Most values in the screen are low, and negative values occur. The compounds are a random part of those screened.

structure: CCOc1ccc(CNC(C)c2c(C)nn(C)c2C)cc1 (stereo not given)
effect: -20.62

structure: COc1ccccc1-n1c(C)cc(CNC(=O)NC(C)C)c1C
effect: -56.04

structure: Cc1sc(-c2ccco2)nc1C(=O)N(CC(N)=O)C1CCCC1
effect: -25.43

structure: [H][C@@]12COC[C@]1([H])[C@@H](OCCN(C)C)CN2C(=O)c1ccc[nH]1
effect: 20.8

structure: CN1CCN(Cc2noc(-c3cc(-c4ccc(F)cc4)n[nH]3)n2)CC1
effect: -8.563

structure: O=C(c1cc(-c2ccco2)cs1)N1CCCC1
effect: -0.9909

structure: O=C(NC1CC2(CCN(CCO)CC2)Oc2ccccc21)c1csnn1 (stereo not given)
effect: -38.49

structure: [H][C@]12CC[C@]([H])(CN(c3ncccn3)C1)N(CC=C(C)C)C2=O
effect: -0.9159

structure: CCCc1cc(C(=O)N2CCC3(CC2)CN(CCN(C)C)C(=O)O3)no1
effect: -32.11

structure: NC(=O)CS(=O)(=O)Cc1ccc(F)cc1
effect: -29.53

structure: CCc1ccc(CN(C)Cc2cnc(S(=O)(=O)CC)n2CCOC)cc1
effect: -16.37

structure: CN1CSC[C@H]1C(=O)N1CCC(Cc2ccccc2F)CC1
effect: -30.06

structure: O=C(NS(=O)(=O)c1ccc2c(c1)OCCO2)c1ccc(Br)cc1F
effect: 1.617

structure: O=C(O)C(F)(F)F.O=C(O)C(F)(F)F.c1cncc(COCc2nnc3n2CCN(Cc2ccco2)C3)c1
effect: 8.463

structure: O=S(=O)(c1cccs1)N1CCC(c2nc(-c3cccs3)no2)CC1
effect: -23.1

structure: COc1ccc(C)cc1CC(=O)N1CC[C@@]2(CCCO2)[C@@H](O)C1
effect: 16.44

structure: CN1CCN(c2cccc(Cl)c2CNCCS(C)(=O)=O)CC1
effect: 8.973

structure: CC1CN(c2ccc(C#N)cn2)CCN1c1ccc2nncn2n1 (stereo not given)
effect: -15.84

structure: Cc1nc(NCc2ccc(C)o2)cc(C(=O)N2CCOCC2)n1
effect: 14.54

structure: CCN(Cc1cc(=O)n2cc(Br)ccc2n1)C1CC1
effect: -24.35

structure: Cc1ccc(CNC(=O)Nc2nnc(C3CC3)s2)n1C
effect: -14.95

structure: CCn1nc(C)c(C(=O)NCc2csc(C3CC3)n2)c1C
effect: 5.66

structure: Cc1ncsc1CNC(=O)N1CCN(Cc2ccccc2)CC1C (stereo not given)
effect: -9.556

structure: CCOCCC1(CNC(=O)c2ccncc2)CCC1
effect: -7.96

structure: O=C(NCc1csc2ccc(Cl)cc12)c1cc2n(n1)CCNC2
effect: -9.188

structure: Cc1ccc(CN2CC[C@@H](NC(=O)c3cccnc3)[C@H](O)C2)o1
effect: -10.9

structure: Cn1cc(CCNC(=O)N2CCCc3c(F)cccc32)cn1
effect: -65.4

structure: CCOc1ccc(C#N)cc1NCC(=O)NC(=O)Nc1ccccc1
effect: -4.787

structure: Cc1ncsc1CCN(C)Cc1cc2n(n1)CCN(Cc1ccco1)C2
effect: -16.44

structure: [H][C@@]12CC[C@H](Oc3ccccc3F)[C@]1([H])CN(C(=O)COCCOC)C2
effect: 4.151

structure: CC(C)(C)c1nnc(CN2CCN(C(=O)CC3CCCCC3)CC2)o1
effect: -25.09

structure: CN1CCOC(CNC(=O)Cc2ccccc2F)C1 (stereo not given)
effect: -42.35

structure: CCC(CC)c1cc(CNC(=O)N2CCOCC2CC)on1 (stereo not given)
effect: -17.57

structure: CC(=O)NCCN1CCC(c2cccs2)CC1
effect: -43.56

structure: O=C(NC1CCN(c2ccc(-c3ccccc3F)nn2)C1)C1CCC1 (stereo not given)
effect: -0.9442

structure: CC(C)CNC(=O)Nc1cccc(OCC#N)c1
effect: -40.63

structure: O=C(NCc1ccco1)c1[nH]nc2c1CS(=O)(=O)CC2
effect: -77.98

structure: O[C@H]1CN(CCOc2ccc(F)cc2)CC[C@@]12CCCO2
effect: 2.449

structure: Cc1[nH]ccc1C(=O)N1CCCC(c2nccn2Cc2cscn2)C1 (stereo not given)
effect: 8.982

structure: [H][C@@]12CS(=O)(=O)C[C@]1([H])N(Cc1nccs1)CCN2CCOC
effect: -25.21

structure: COc1c(C(=O)N2CCOC(c3cccs3)C2)c(C)nn1C (stereo not given)
effect: 0.4704

structure: CC(=O)N1CC2(CCN(C(=O)c3ccoc3)C2)C1
effect: 14.91

structure: Cn1c(-c2ccccc2Cl)nc2cc(C(=O)NCCOCCO)cnc21
effect: 5.33

structure: CC(C)c1ocnc1C(=O)NC1(c2cccc(F)c2)CCOCC1
effect: -45.99

structure: Cc1ccc(OCC(=O)NC2CC2)nc1
effect: -38.01

structure: CC(C)CCN1CC2(CCCN(C(=O)CNC(=O)N(C)C)C2)CCC1=O (stereo not given)
effect: -20.53

structure: Cc1ccc(CNC(=O)COc2ccc3c(c2)OCC3O)cc1 (stereo not given)
effect: -12.68

structure: CCC(Nc1cccc(Oc2ccccn2)c1)C(N)=O (stereo not given)
effect: 30.32

structure: Cn1nc(Cn2cccc2)c2c1CN(Cc1ccoc1)C2.O=C(O)C(F)(F)F
effect: -68.88

structure: CC(Cc1ccco1)NC(=O)C1=NN(c2ccccc2)C(=O)CC1 (stereo not given)
effect: -2.843

Once more, the final 4:

For Cc1ccc(CNC(=O)COc2ccc3c(c2)OCC3O)cc1 (stereo not given) the result was -12.68%.
For CCC(Nc1cccc(Oc2ccccn2)c1)C(N)=O (stereo not given) the result was 30.32%.
For Cn1nc(Cn2cccc2)c2c1CN(Cc1ccoc1)C2.O=C(O)C(F)(F)F the result was -68.88%.
For CC(Cc1ccco1)NC(=O)C1=NN(c2ccccc2)C(=O)CC1 (stereo not given) the result was -2.843%.

Measurements from “University of Dundee, Small-Polar-MMV Screening Library” (2021), ChEMBL document CHEMBL3988442.